## Library compounds against nucleic acid targets

Data from the ROBIN nucleic acid binder screens, doi:10.1002/anie.202211358.

Targets, with sequences 5′ to 3′:
PreQ1: PreQ1 riboswitch RNA pseudoknot, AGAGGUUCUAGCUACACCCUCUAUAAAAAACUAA. From B. subtilis. About 170 hits among about 24,000 compounds.

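Compounds were printed on reactive glass slides in duplicate spots, a dye-labelled oligonucleotide was laid over them, and the fluorescence left after washing was read. The data file lists only calls. An earlier report of the laboratory on the PreQ1, TPP and SAM-II riboswitches (doi:10.1038/s41467-019-09493-3) used 1 µM RNA for 2 h and required a mean Z-score above 3 (spot signal-to-noise against the whole library), a score well above that on a control array, and duplicate spots agreeing (coefficient of variation under 100); it then also set aside compounds that hit other targets, which this list keeps. The cut-offs behind this list may differ. The calls come from the array alone, and fixing a compound to the slide can hide its binding.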
A compound is marked active if it was called a hit and inactive if it was screened but was not.
Compounds were drawn at random from those tested, without regard to their results.

Compound	PreQ1
O=C(O)C1(Oc2ccc3ccccc3c2)CCN(C2CCNCC2)CC1	inactive
CC(=O)O.N=c1ccn2c(n1)OC1C(O)C(CO)OC12 (stereo not shown)	inactive
Cc1cccc(N(C)C(=S)Oc2ccc3ccccc3c2)c1	inactive
O=C(CCN1Cc2ccccc2C1=O)N1CCC2(CC1)OCCCC2O (stereo not shown)	inactive
COc1ccccc1CNc1ccc2c(c1)nc(C)n2Cc1ccccc1	inactive
CS(=O)(=O)N1CCN([C@H]2CN(C(=O)CCn3ccccc3=O)C[C@@H]2O)CC1	inactive
CCCOc1cccc(C2c3c(-c4c(C)cc(C)cc4O)n[nH]c3C(=O)N2CCO)c1 (stereo not shown)	inactive
O=C(O)c1ccc(-n2c(C(O)c3ccccc3)n[nH]c2=O)cc1 (stereo not shown)	inactive
COc1cccc(-c2cnc(NCc3cccc(Br)c3)n2C)c1	inactive
OC1(CNCc2nnnn2-c2ccccc2)CCNC1 (stereo not shown)	inactive
CCc1ccccc1NC1=NS(=O)(=O)C(c2ccccc2)=C1C	inactive
Cc1nc(CCN)cc(NCCC2CCCN2C)n1 (stereo not shown)	inactive
NC(=O)Nc1n[nH]c(-c2ccccc2)n1	inactive
CC(C)(O)CCc1ccc(C(=O)N2CCNC(c3ccccc3)C2)cc1 (stereo not shown)	inactive
O=C(Nc1ccc(Cl)c([N+](=O)[O-])c1)Nc1nc2ccccc2s1	inactive
Cc1nn(CCO)cc1CN1CCCC(c2ccccc2)(c2ccccc2)C1	inactive
Cc1ccc(NC2=C(C(N)=O)S(=O)(=O)c3ccccc32)cc1C	inactive
Cc1c(Cl)cccc1NCC(=O)NN=Cc1ccc(C#N)cc1	inactive
OCCOCCNc1ccnc(C(F)(F)F)n1	inactive
Cc1ccc2c(c1Br)C1(C(=O)N2)C(C#N)=C(N)Oc2[nH]nc(C(C)C)c21 (stereo not shown)	inactive
COc1ccc(C2C(C#N)=C(N)Oc3c2oc(CO)cc3=O)cc1Br (stereo not shown)	inactive
Cc1ccc(S(=O)(=O)c2nc(-c3ccc(Cl)cc3Cl)oc2NCc2ccccc2)cc1	inactive
Cn1c(N2CC[C@H](O)C2)nc2cc(C(=O)N3CC(c4ccccn4)C3)ccc21	inactive
Cc1cc(N)n(-c2ccc3nnc(C)n3n2)n1	inactive
O=C(CN1CCCC1)Nc1nc(-c2ccc(Cl)cc2)cs1	inactive
OCc1cc(-c2ccc(CN3CCCC3)cn2)ccc1F	inactive
COc1ccc(-n2nc(C(N)=O)c3c2C(=O)N(c2ccc(N4CCCCC4=O)cc2)CC3)cc1	inactive
OCC(CNCc1cc(O)c2cc(F)ccc2n1)Cc1ccsc1 (stereo not shown)	inactive
OCc1ccc(Cn2cc(-c3ccccc3Cn3cccn3)nn2)cc1	inactive
N=C1OC(c2ccccc2)C(O)=C1O (stereo not shown)	inactive
CCNC(=O)[C@@H]1C[C@H](N)CN1C(=O)c1c(-c2ccccc2)noc1C	inactive
CCN(C(=O)Nc1ccccc1CN1CCCCC1)[C@H]1COC[C@@H]1O	inactive
COc1ccc(S(=O)(=O)[C@H]2CS(=O)(=O)C[C@@H]2NCCc2ccc(S(N)(=O)=O)cc2)cc1	inactive
CC(C)(O)C1C2OC(=O)C1C1(O)CC3OC34C(=O)OC2C14C (stereo not shown)	inactive
COc1ccc(-c2csc(Nc3ccc(S(=O)(=O)Nc4cc(C)on4)cc3)n2)cc1C	inactive
Cc1cc(C)c2nccc(N3CC[C@@H](N4CCN(C)CC4)[C@H](O)C3)c2c1	inactive
CN(CC1(CO)CC1)C(=O)Nc1ccc(-c2nnc(-c3ccco3)o2)cc1	inactive
N#Cc1c(N)nc(N)nc1Nc1ccc(Br)cc1	inactive
OCC1CC2CC(O)CC(C1)C2 (stereo not shown)	inactive
COCCn1cnnc1CCNC(=O)c1ccccc1C1CCNC1 (stereo not shown)	inactive
CN(C)C(=O)c1cncc(-c2cc(O)cc(CCC3CCCCN3)c2)n1 (stereo not shown)	inactive
N[C@H]1CN(C(=O)c2ccc3ncccc3c2)C[C@@H]1C1CC1	inactive
NNC(=O)c1cc(-c2ccc(N)cc2)nc2ccc(Br)cc12	active
O=C(NC(Cc1cc(=O)[nH]c2ccccc12)C(=O)O)c1ccc(Cl)cc1 (stereo not shown)	inactive
Cc1ccc(NC(=O)Nc2cccnc2)cc1NC(=O)Nc1cccnc1	inactive
NCCc1nncn1-c1cccc2ccccc12	inactive
CN(CC1(CO)CCOCC1)C(=O)Cn1ccnc1-c1ccccc1	inactive
CC(=O)N1CCC(NC(C)CCCC(C)(C)O)CC1 (stereo not shown)	inactive
COc1cc(C2ON=C(CO)C2C)cc2c1OCO2 (stereo not shown)	inactive
COc1cccc(Cn2c(NCc3ccco3)nc3c2c(=O)n(C)c(=O)n3C)c1	inactive
C=CCNc1ccccc1C(=O)NCCC(=O)Nc1ccccc1CC	inactive
COc1ccc(-c2cc(C(=O)NN=C(C)c3ccc(N)cc3)[nH]n2)cc1	inactive
COCCNc1cc(C(C)C)nc2c(-c3ccccc3)c(C)nn12	inactive

Once more, the final 5:

- COc1cc(C2ON=C(CO)C2C)cc2c1OCO2 (stereo not shown) | PreQ1: inactive
- COc1cccc(Cn2c(NCc3ccco3)nc3c2c(=O)n(C)c(=O)n3C)c1 | PreQ1: inactive
- C=CCNc1ccccc1C(=O)NCCC(=O)Nc1ccccc1CC | PreQ1: inactive
- COc1ccc(-c2cc(C(=O)NN=C(C)c3ccc(N)cc3)[nH]n2)cc1 | PreQ1: inactive
- COCCNc1cc(C(C)C)nc2c(-c3ccccc3)c(C)nn12 | PreQ1: inactive